Measurements as given in article PMC9814488.
Results are given in words; binding and its absence hold for the method and conditions named. Binding seen in cells or lysates may run through a third protein. Some results given as binding are weak or reduced against the parent protein; the word gives no strength.

Amino acid sequences for entries named in this document (tags omitted). A change or cut given only in a name is not applied to a line headed by its entry. Chains listed by the source or under a name are the forms on record and can include a tag or linker. Residues count along the entry.
N-terminal region of CIC-S containing a FLAG tag at the N-terminus (FLAG-CIC-S-N, residues 1-700) (Q924A2-2, form named): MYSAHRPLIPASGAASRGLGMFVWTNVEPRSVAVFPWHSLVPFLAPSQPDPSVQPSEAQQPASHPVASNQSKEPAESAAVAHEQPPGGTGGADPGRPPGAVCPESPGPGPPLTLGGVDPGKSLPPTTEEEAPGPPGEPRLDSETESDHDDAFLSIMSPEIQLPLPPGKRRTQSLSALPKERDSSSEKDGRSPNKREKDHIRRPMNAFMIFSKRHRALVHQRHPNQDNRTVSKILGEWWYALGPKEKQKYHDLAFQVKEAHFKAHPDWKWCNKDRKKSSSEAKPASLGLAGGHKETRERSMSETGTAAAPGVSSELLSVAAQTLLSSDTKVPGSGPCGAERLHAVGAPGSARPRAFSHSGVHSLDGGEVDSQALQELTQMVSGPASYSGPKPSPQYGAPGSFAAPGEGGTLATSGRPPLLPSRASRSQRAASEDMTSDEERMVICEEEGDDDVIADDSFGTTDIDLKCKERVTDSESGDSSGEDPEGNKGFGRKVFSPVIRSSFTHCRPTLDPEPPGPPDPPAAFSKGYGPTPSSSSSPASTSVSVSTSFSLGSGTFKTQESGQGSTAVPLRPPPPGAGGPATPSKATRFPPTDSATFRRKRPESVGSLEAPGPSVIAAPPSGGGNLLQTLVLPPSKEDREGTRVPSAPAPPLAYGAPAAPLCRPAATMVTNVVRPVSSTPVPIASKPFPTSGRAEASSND
C-terminal region of CIC-S containing an HA tag at the C-terminus (CIC-S-C-HA, residue 701 to the end) (Q924A2-2, form named): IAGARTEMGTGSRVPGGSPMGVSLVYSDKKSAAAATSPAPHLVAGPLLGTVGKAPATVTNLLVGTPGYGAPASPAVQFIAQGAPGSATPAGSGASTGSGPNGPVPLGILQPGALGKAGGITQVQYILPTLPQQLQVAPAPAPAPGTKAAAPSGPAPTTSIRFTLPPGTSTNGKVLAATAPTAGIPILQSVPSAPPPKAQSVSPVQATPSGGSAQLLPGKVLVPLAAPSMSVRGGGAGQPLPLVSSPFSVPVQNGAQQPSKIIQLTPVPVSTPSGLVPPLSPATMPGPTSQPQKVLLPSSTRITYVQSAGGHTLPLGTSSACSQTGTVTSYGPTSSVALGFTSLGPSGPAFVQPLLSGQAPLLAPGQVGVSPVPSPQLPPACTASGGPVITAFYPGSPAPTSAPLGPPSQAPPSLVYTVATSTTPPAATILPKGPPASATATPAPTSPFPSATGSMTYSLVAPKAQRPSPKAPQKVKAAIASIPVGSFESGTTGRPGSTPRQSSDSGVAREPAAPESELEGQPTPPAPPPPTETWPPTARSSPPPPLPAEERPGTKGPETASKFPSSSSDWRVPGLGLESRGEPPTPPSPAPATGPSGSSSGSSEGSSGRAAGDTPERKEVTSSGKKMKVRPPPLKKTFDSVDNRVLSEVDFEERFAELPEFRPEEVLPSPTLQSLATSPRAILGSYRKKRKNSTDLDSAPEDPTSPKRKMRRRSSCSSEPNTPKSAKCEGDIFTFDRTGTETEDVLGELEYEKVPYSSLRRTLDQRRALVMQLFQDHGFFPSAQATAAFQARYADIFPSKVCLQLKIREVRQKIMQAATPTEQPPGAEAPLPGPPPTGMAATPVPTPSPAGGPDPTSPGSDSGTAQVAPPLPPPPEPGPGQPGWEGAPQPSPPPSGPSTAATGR

How the values were obtained:
[1] = biological target: N-terminal region of CIC-S containing a FLAG tag at the N-terminus (FLAG-CIC-S-N, residues 1-700) (mouse) (UniProt Q924A2); assay: co-IP; HEK293T co-transfected with FLAG-CIC-S-N and CIC-S-C-HA; cells fixed (cross-linked) with 1% PFA for 10 min at RT, sonicated in IP buffer (20 mM Tris-HCl pH 8.0, 350 mM KCl, 0.2 mM EDTA); ANTI-FLAG M2 affinity gel overnight at 4 °C; blot for HA; cells untreated or treated with EGF, or EGF and the ERK inhibitor SCH772984
[2] = biological target: N-terminal region of CIC-S containing a FLAG tag at the N-terminus (FLAG-CIC-S-N, residues 1-700) (mouse) (UniProt Q924A2); assay: proximity ligation; HEK293T co-transfected with FLAG-CIC-S-N and CIC-S-C-HA, treated with PBS or EGF for 5 min; fixed with 4% PFA, permeabilised with 0.1% Triton X-100; Duolink PLA with anti-FLAG M2 and anti-HA primary antibodies

## C-terminal region of CIC-S containing an HA tag at the C-terminus (CIC-S-C-HA, residue 701 to the end) (from UniProt Q924A2-2 701-1604) (domain or fragment)
[1]
  binding: binds
[2]
  binding: binds
